Results on ten molecules are retold here after PMC12892887.

The chains behind the UniProt entries cited, without tags or fusion partners.
UniProt Q9QZR5: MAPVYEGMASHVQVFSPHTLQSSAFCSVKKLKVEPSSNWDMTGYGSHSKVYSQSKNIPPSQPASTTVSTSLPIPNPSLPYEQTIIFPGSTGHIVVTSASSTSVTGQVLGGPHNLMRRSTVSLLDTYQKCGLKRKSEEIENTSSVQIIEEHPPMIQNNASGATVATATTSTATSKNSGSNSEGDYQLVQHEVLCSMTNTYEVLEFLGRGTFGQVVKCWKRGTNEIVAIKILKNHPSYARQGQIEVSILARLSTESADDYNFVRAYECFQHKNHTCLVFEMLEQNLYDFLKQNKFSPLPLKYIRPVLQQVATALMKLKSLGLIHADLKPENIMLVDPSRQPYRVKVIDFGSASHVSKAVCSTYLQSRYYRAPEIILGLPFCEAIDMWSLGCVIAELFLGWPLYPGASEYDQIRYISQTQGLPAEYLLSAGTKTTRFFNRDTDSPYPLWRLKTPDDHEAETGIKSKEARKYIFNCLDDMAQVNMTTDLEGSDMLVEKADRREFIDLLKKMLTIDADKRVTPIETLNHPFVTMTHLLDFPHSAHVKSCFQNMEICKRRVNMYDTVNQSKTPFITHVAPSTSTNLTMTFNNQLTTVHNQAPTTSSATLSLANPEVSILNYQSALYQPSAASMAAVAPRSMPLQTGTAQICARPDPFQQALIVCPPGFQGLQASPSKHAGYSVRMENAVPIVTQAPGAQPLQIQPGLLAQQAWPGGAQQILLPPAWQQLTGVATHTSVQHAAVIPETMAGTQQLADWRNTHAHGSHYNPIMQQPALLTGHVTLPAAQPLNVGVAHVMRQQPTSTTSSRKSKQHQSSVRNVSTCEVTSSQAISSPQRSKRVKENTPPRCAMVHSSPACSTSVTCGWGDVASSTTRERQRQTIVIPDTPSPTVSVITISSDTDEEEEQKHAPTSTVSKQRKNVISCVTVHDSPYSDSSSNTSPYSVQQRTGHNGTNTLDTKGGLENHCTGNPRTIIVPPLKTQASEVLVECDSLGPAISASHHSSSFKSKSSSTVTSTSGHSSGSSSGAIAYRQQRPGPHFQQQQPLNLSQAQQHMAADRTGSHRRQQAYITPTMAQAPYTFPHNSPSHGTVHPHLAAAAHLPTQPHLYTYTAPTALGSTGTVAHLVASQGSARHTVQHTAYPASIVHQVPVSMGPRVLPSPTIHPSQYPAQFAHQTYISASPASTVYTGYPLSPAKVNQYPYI
UniProt Q9WV30: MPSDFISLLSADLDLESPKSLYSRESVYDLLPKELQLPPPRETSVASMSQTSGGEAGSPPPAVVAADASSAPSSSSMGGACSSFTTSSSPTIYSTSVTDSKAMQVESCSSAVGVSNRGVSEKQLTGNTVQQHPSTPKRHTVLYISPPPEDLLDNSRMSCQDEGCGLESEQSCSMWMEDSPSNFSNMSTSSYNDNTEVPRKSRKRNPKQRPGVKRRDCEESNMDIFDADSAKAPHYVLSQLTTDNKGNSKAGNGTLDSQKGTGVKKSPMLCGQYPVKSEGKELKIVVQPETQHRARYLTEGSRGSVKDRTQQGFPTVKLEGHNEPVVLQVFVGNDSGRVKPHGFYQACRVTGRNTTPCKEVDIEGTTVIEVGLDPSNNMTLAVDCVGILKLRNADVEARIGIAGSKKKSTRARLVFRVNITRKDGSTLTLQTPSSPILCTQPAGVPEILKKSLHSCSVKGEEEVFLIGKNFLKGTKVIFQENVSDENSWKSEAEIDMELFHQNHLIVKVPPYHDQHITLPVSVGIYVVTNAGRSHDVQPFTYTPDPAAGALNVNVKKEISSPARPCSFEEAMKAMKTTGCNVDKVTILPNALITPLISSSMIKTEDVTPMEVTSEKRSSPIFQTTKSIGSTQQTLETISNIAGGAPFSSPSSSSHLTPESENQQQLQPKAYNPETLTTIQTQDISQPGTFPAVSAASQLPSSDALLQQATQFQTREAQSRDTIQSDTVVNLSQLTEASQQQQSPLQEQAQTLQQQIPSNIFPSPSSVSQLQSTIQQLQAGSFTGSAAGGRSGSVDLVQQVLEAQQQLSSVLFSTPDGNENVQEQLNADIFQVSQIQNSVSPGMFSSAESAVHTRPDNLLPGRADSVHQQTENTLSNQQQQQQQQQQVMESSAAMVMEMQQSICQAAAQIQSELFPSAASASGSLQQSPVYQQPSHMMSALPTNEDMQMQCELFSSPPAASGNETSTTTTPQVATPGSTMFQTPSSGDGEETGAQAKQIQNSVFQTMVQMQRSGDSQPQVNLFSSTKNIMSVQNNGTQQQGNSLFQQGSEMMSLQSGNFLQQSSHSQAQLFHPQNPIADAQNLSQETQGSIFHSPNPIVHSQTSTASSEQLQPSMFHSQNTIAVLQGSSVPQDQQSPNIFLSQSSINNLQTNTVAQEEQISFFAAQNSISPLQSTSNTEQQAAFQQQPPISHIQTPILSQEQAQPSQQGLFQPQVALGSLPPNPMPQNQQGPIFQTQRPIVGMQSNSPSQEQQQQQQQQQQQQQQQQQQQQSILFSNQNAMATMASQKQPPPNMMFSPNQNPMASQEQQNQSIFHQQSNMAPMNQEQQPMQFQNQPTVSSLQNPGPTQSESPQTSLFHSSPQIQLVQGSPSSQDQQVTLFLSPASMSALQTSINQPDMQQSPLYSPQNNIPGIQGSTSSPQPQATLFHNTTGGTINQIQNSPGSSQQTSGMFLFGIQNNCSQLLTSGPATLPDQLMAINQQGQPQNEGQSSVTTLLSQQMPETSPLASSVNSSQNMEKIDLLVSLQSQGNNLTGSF
UniProt P70268: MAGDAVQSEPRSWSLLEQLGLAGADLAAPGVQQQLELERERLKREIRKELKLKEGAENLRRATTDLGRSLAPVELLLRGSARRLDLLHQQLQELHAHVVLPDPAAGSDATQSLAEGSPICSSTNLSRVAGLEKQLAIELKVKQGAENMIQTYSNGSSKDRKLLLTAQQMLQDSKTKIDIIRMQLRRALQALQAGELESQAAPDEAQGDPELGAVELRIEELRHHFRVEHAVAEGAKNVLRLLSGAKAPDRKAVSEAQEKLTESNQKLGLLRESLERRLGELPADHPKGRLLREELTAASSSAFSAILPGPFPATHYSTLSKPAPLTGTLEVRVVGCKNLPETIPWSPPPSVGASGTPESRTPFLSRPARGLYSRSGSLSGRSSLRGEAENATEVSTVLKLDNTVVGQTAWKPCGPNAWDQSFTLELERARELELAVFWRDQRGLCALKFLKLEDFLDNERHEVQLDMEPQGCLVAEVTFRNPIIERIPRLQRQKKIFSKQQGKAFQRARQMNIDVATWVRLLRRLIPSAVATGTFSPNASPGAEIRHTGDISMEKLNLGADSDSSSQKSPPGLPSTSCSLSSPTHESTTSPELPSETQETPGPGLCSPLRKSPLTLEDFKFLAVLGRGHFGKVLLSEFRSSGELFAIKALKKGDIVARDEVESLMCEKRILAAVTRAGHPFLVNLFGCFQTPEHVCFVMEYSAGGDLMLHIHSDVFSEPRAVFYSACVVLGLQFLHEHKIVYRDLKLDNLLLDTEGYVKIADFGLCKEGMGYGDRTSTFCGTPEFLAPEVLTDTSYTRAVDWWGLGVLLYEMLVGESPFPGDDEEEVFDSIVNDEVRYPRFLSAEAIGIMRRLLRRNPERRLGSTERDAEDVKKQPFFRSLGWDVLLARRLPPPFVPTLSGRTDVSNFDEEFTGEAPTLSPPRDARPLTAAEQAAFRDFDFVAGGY
UniProt Q9WUK4: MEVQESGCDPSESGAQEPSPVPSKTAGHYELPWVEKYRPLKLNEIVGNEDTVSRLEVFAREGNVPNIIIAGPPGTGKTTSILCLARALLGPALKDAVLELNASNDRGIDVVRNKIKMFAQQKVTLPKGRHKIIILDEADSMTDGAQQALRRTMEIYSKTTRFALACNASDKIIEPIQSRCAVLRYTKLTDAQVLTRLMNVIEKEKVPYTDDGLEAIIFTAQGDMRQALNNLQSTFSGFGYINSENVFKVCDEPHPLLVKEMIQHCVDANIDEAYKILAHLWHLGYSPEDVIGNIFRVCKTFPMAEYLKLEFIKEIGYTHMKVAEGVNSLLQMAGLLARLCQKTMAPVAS
UniProt Q6PR54: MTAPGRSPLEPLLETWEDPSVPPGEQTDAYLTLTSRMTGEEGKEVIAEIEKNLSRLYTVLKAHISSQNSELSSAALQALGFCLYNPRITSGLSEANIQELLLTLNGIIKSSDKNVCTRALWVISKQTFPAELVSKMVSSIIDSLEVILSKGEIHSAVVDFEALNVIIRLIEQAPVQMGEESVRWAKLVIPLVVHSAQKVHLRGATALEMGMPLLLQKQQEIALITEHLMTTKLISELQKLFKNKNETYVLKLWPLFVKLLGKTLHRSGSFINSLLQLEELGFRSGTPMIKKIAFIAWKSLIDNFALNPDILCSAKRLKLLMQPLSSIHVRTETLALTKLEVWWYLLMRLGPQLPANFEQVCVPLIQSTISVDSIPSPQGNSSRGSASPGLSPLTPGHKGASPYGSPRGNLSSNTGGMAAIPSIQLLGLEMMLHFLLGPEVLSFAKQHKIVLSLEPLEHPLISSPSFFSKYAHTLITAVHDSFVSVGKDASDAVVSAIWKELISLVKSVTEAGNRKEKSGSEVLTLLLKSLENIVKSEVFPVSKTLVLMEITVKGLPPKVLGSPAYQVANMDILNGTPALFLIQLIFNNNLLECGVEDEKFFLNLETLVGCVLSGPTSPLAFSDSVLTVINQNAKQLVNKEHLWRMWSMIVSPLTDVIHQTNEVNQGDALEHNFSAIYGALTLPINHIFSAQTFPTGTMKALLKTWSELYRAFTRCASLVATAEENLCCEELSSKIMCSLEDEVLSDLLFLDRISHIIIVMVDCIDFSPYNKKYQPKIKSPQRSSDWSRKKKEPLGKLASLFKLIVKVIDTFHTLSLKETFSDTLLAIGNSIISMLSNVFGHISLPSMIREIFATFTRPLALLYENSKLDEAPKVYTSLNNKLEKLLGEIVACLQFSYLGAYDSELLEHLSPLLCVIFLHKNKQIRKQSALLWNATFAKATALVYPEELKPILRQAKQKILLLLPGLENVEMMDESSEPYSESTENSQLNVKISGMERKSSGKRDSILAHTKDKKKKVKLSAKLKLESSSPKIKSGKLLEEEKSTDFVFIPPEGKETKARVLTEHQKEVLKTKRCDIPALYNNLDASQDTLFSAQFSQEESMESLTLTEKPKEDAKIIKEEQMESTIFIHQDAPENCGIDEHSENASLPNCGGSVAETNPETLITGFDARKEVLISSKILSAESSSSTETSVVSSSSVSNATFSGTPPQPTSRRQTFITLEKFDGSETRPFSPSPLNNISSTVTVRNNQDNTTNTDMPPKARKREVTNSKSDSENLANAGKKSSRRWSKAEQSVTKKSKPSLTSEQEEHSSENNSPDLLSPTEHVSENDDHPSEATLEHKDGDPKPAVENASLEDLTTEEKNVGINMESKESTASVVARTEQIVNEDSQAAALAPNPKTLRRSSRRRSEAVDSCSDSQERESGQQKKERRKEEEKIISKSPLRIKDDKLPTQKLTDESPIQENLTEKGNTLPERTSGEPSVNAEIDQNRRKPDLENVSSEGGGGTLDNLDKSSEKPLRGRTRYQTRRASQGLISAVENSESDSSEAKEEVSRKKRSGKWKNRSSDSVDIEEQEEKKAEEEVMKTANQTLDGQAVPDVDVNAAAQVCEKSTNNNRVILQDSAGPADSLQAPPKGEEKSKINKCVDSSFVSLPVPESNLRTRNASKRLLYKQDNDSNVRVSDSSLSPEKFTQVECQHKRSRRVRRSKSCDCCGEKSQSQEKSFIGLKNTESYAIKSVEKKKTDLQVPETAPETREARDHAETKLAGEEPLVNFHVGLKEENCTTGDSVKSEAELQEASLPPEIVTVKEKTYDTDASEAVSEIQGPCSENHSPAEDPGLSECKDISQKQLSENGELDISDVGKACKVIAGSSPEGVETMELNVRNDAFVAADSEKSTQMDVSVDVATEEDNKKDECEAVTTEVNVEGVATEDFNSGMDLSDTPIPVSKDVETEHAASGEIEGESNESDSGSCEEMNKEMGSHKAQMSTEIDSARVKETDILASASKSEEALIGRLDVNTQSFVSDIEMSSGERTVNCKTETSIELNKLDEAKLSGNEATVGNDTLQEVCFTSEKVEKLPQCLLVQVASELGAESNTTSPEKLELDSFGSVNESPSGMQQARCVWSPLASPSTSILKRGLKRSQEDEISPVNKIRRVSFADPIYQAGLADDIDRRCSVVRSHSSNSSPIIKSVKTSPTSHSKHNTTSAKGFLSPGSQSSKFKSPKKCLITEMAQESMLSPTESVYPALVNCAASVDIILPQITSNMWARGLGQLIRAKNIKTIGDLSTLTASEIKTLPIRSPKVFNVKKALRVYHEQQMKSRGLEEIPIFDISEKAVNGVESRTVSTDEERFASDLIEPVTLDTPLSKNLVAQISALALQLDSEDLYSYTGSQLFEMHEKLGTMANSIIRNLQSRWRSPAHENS

Test [1] addresses T1, HDAC8 (mouse (endogenous in Teffs and Tregs)) (UniProt Q8VH37).
T1 sequence: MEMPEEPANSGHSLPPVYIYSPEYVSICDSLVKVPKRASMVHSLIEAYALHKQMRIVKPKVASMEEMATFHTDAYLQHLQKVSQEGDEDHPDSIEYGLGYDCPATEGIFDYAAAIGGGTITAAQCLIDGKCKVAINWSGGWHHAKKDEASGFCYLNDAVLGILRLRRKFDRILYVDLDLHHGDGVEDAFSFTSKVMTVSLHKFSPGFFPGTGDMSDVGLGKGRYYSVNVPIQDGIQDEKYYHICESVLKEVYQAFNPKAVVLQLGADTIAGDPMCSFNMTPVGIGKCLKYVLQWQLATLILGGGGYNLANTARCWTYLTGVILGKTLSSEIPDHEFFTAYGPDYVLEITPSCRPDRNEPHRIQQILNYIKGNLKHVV
The test is described as follows: affinity purification with mass spectrometry; Treg lysate (IP lysis buffer, 200 ug) incubated overnight at 4°C with HDAC8 antibody on protein A/G magnetic beads; IgG control; on-bead digestion, data-independent acquisition.

In test [2] the target is T1, HDAC8 (mouse (endogenous in Teffs and Tregs)). The test is described as follows: affinity purification with mass spectrometry; Teff lysate (IP lysis buffer, 200 ug) incubated overnight at 4°C with HDAC8 antibody on protein A/G magnetic beads; IgG control; on-bead digestion, data-independent acquisition.

These are yes or no findings as the source states them, for the method shown. In cells and extracts the contact can be indirect. A yes stands for co-enrichment or nearness to the bait. Other partners may have been found. For some of these results: Tags and fused reporters may be left off the sequences shown.

On to Fastkd3 (mouse (endogenous in Tregs)), for which, in test [1], the binding result is “binds”.
As to Hipk2 (from UniProt Q9QZR5 1-1196), the binding entry in test [2] and in test [1] was “binds” throughout.
For the molecule Nfat5 (from UniProt Q9WV30 1-1534), the binding result in test [2] and in test [1] was “binds” in each case.
In the case of Pkn1 (from UniProt P70268 1-946), the binding entry in test [1] is given as “binds”.
With Rfc2 (from UniProt Q9WUK4 1-349), the binding entry in test [1] is reported as “binds”.
Turning to Rif1 (from UniProt Q6PR54 1-2419), in test [1], the binding result is “binds”.

B1: Gstt3 (protein, UniProt Q99L20 1-241)
chain: MGLELYLDLMSQPCRAVYIFAKKNGIPFQLRTIELLKGQQYTDSFAQVNPLRKVPALKDGDFVLAESVAILLYLSRKYKAPDHWYPQDLQTRARVDEYLAWQHTALRSCCTRAMWQKMMFPVFLGQPVPPEMLASTLAELDGCLQVLEDKFLRNQAFLTGSHISVADLVAITELMHPVSAGCKIFESRPKLAAWRQRVEAEVGESLFQEAHEVVLKAKDMPPLMDPALKEKLKLSVQCLLH
As to B1, in test [1], the binding entry is “binds”.

B2: Znf639 (protein, UniProt Q99KZ6 1-485)
chain: MNEYPKKRKRKTLHPSRYSDSSGISRIADGVSGIFSDHCYSVCSMRQPDLKYFDNKDDDSDPETANDLPKFADGTKARNRNQSYLVPSPVLRILDHTVFSTEKSTEVEICDEECASPESVHQHTQEESPIEVHTSEDVPIAVEVHAISEDYDIEAENNSSESLQDQADEEPPAKLCKILDKGQALNVTAQQKWPLLRANSSGLYKCELCEFNSKYFSDLKQHVILKHKRTDSNVCRVCKESFSTNMLLIEHAKLHEEDPYICKYCDYKTVIFENLSQHIADTHFSDHLYWCEQCDVQFSSSSELYLHFQEHSRDEQYLCQFCEHETGDPEDLHSHVVNEHARRLIELSDKCGSGGHGQCSLLSKITFDKCKNFFVCQVCGFRSRLHTNVNRHVAIEHTKIFPHVCDDCGKGFSSMLEYCKHLNSHLSEGIYLCQYCEYSTGQIDDLKIHLDFKHSADLPHKCSECLMRFGNERDLLGHLQVHETT
With B2, the binding entry in test [2] and in test [1] was “binds” each time.

B3: Lkzf5 (protein, UniProt Q8BU00 1-419)
chain: MGEKKPEPLDFVKDFQEYLTQQTHHVNMISGSVSGDKEAETLQGAGTDGDQNGLDHPSVEVSLDENSGMLVDGFERTFDGKLKCRYCNYASKGTARLIEHIRIHTGEKPHRCHLCPFASAYERHLEAHMRSHTGEKPYKCELCSFRCSDRSNLSHHRRRKHKMVPIKGTRSSLSSKKMWGVLQKKTSNLGYSRRALINLSPPSMVVQKPDYLNDFTHEIPNIQTDSYEAMAKTTPTGGLPRDPQELMVDNPLNQLSTLAGQLSSLPPENQNPASPDVDACPDEKPFMIQQPSAQAVVSAVSASIPQSSSPTSPEPRPSHSQRNYSPVAGPSSEPSAHTSTPSIGNSQPSTPAPTLPVQDPQLLHHCQHCDVYFADNVLYTVHMGCHGYDSPFQCNVCGCKCKDKYDFACHFARGQHNQH
Regarding B3, in test [2], the binding result is listed as “binds”.

B4: Crtc3 (protein, UniProt Q91X84 1-619)
chain: MAASPGSGSANPRKFSEKIALHTQRQAEETRAFEQLMTDLTLSRVQFQKLQQLRLTQYHGGSLPNVSQLRNSAPEFQPSLHQADNVRGTRHHGLVERPARNRFHPLHRRSGDKPGRQFDGNAFAASYSSQHLDESWPRQQPPWKEEKHPGFRLTSALNRTNSDSALHTSALSTKPQDPYGGGGQSAWPAPYMGFCDGENDGHAEVAAFPGPLKEENLLNVPKPLPKHLWESKEIQSLSGRPRSCDVGGGNAFPHNGQNTGLSPFLGTLNTGGSLPDLTNLHYSAPLPASLDTSDHLFGSMSVGNSVGNLPAAMTHLGIRTSSGLQSSRSNPSIQATLSKMALSSSLKCHPQPSVANASALHPSLRLFSLSNPSLSTTNLSGPSRRRQPPVSPLTLSPGPEAHQGFSRQLSATSPLNPYPASQMVTSEQSPLSFLPTDAQAQVSPPPPYPTPQELPQPLLQQPHAQEPPTQQPQAAPSLPQSDFQLLTAQGSALTSFFPDVRFDQQPMRPSPAFPQQVPLVQQSHREPQDSFHLRPNPYSSCGSFPGTILTEDTNSNLFKGLSGGLSGMPEVSLDMDTPFPLEEELQIEPLSLDGLNMLSDSSMGLLDPSVEETFRADRL
B4: in test [2], the binding entry is on record as “binds”.
